Patent US20250283871A1, “COMPOSITIONS AND METHODS FOR MODULATING THE INTERACTION BETWEEN SS18-SSX FUSION ONCOPROTEIN AND NUCLEOSOMES” (Dana-Farber Cancer Institute, Inc., priority 2020, published 2025)

System: BAF complex subunits and histone proteins
Assay: Mass spectrometry proteomics of purified HA-SS18 WT and HA-SS18-SSX1 complexes (Tables 5A-5E)
Parameters: species or system human
[1] = HA-SS18SSX1_NE_peptides: protein co-purified with HA-SS18-SSX1 BAF complexes from soluble nuclear extract (NE), HEK-293T cells
[2] = HA-SS18WT_NE_peptides: HA-SS18 WT complexes purified from nuclear extract (NE), HEK-293T, label = protein identified (Gene Symbol)
[3] = HA-SS18SSX1 purification, NE (soluble nuclear extract) fraction, HEK-293T, peptides per identified protein
[4] = HA-SS18WT_NE_peptides: proteins co-purified with HA-SS18 WT from nuclear extract (NE), HEK-293T

Molecule	Total (peptides) [1]	Unique (peptides) [1]	Total (peptides) [2]	Unique (peptides) [2]	Total (total peptides) [3]	Unique (unique peptides) [3]	Total (peptides) [4]	Unique (peptides) [4]
ILVBL (protein, UniProt A1L0T0 1-632, looked up) 2-hydroxyacyl-CoA lyase 2: METPAAAAPAGSLFPSFLLLACGTLVAALLGAAHRLGLFYQLLHKVDKASVRHGGENVAAVLRAHGVRFIFTLVGGHISPLLVACEKLGIRVVDTRHEVTAVFAADAMARLSGTVGVAAVTAGPGLTNTVTAVKNAQMAQSPILLLGGAASTLLQNRGALQAVDQLSLFRPLCKFCVSVRRVRDIVPTLRAAMAAAQSGTPGPVFVELPVDVLYPYFMVQKEMVPAKPPKGLVGRVVSWYLENYLANLFAGAWEPQPEGPLPLDIPQASPQQVQRCVEILSRAKRPLMVLGSQALLTPTSADKLRAAVETLGVPCFLGGMARGLLGRNHPLHIRENRSAALKKADVIVLAGTVCDFRLSYGRVLSHSSKIIIVNRNREEMLLNSDIFWKPQEAVQGDVGSFVLKLVEGLQGQTWAPDWVEELREADRQKEQTFREKAAMPVAQHLNPVQVLQLVEETLPDNSILVVDGGDFVGTAAHLVQPRGPLRWLDPGAFGTLGVGAGFALGAKLCRPDAEVWCLFGDGAFGYSLIEFDTFVRHKIPVMALVGNDAGWTQISREQVPSLGSNVACGLAYTDYHKAAMGLGARGLLLSRENEDQVVKVLHDAQQQCRDGHPVVVNILIGRTDFRDGSIAV	2	2	5	5				
UFL1 (protein, UniProt O94874 2-794, looked up) E3 UFM1-protein ligase 1: ADAWEEIRRLAADFQRAQFAEATQRLSERNCIEIVNKLIAQKQLEVVHTLDGKEYITPAQISKEMRDELHVRGGRVNIVDLQQVINVDLIHIENRIGDIIKSEKHVQLVLGQLIDENYLDRLAEEVNDKLQESGQVTISELCKTYDLPGNFLTQALTQRLGRIISGHIDLDNRGVIFTEAFVARHKARIRGLFSAITRPTAVNSLISKYGFQEQLLYSVLEELVNSGRLRGTVVGGRQDKAVFVPDIYSRTQSTWVDSFFRQNGYLEFDALSRLGIPDAVSYIKKRYKTTQLLFLKAACVGQGLVDQVEASVEEAISSGTWVDIAPLLPTSLSVEDAAILLQQVMRAFSKQASTVVFSDTVVVSEKFINDCTELFRELMHQKAEKEMKNNPVHLITEEDLKQISTLESVSTSKKDKKDERRRKATEGSGSMRGGGGGNAREYKIKKVKKKGRKDDDSDDESQSSHTGKKKPEISFMFQDEIEDFLRKHIQDAPEEFISELAEYLIKPLNKTYLEVVRSVFMSSTTSASGTGRKRTIKDLQEEVSNLYNNIRLFEKGMKFFADDTQAALTKHLLKSVCTDITNLIFNFLASDLMMAVDDPAAITSEIRKKILSKLSEETKVALTKLHNSLNEKSIEDFISCLDSAAEACDIMVKRGDKKRERQILFQHRQALAEQLKVTEDPALILHLTSVLLFQFSTHSMLHAPGRCVPQIIAFLNSKIPEDQHALLVKYQGLVVKQLVSQSKKTGQGDYPLNNELDKEQEDVASTTRKELQELSSSIKDLVLKSRKSSVTEE			3	3	3	3		
GNAS (protein, UniProt P63092 2-394, looked up) Guanine nucleotide-binding …: GCLGNSKTEDQRNEEKAQREANKKIEKQLQKDKQVYRATHRLLLLGAGESGKSTIVKQMRILHVNGFNGEGGEEDPQAARSNSDGEKATKVQDIKNNLKEAIETIVAAMSNLVPPVELANPENQFRVDYILSVMNVPDFDFPPEFYEHAKALWEDEGVRACYERSNEYQLIDCAQYFLDKIDVIKQADYVPSDQDLLRCRVLTSGIFETKFQVDKVNFHMFDVGGQRDERRKWIQCFNDVTAIIFVVASSSYNMVIREDNQTNRLQEALNLFKSIWNNRWLRTISVILFLNKQDLLAEKVLAGKSKIEDYFPEFARYTTPEDATPEPGEDPRVTRAKYFIRDEFLRISTASGDGRHYCYPHFTCAVDTENIRRVFNDCRDIIQRMHLRQYELL	3	3						
CDS2 (protein, UniProt O95674 1-445, looked up) Phosphatidate …: MTELRQRVAHEPVAPPEDKESESEAKVDGETASDSESRAESAPLPVSADDTPEVLNRALSNLSSRWKNWWVRGILTLAMIAFFFIIIYLGPMVLMIIVMCVQIKCFHEIITIGYNVYHSYDLPWFRTLSWYFLLCVNYFFYGETVTDYFFTLVQREEPLRILSKYHRFISFTLYLIGFCMFVLSLVKKHYRLQFYMFGWTHVTLLIVVTQSHLVIHNLFEGMIWFIVPISCVICNDIMAYMFGFFFGRTPLIKLSPKKTWEGFIGGFFATVVFGLLLSYVMSGYRCFVCPVEYNNDTNSFTVDCEPSDLFRLQEYNIPGVIQSVIGWKTVRMYPFQIHSIALSTFASLIGPFGGFFASGFKRAFKIKDFANTIPGHGGIMDRFDCQYLMATFVNVYIASFIRGPNPSKLIQQFLTLRPDQQLHIFNTLRSHLIDKGMLTSTTEDE	3	2	2	2				
TMCO1 (protein, UniProt Q9UM00 1-239, looked up) Calcium load-activated …: MPRKRKCDLRAVRVGLLLGGGGVYGSRFRFTFPGCRALSPWRVRVQRRRCEMSTMFADTLLIVFISVCTALLAEGITWVLVYRTDKYKRLKAEVEKQSKKLEKKKETITESAGRQQKKKIERQEEKLKNNNRDLSMVRMKSMFAIGFCFTALMGMFNSIFDGRVVAKLPFTPLSYIQGLSHRNLLGDDTTDCSFIFLYILCTMSIRQNIQKILGLAPSRAATKQAGGFLGPPPPSGKFS	3	2	4	3				
TIMM29 (protein, UniProt Q9BSF4 32-260, looked up) Mitochondrial import inner …: GSWARALLRDYAEACRDASAEARARPGRAAVYVGLLGGAAACFTLAPSEGAFEEALLEASGTLLLLAPATRNRESEAFVQRLLWLRGRGRLRYVNLGLCSLVYEAPFDAQASLYQARCRYLQPRWTDFPGRVLDVGFVGRWWVLGAWMRDCDINDDEFLHLPAHLRVVGPQQLHSETNERLFDEKYKPVVLTDDQVDQALWEEQVLQKEKKDRLALSQAHSLVQAEAPR	2	2						
TIMM23 (protein, UniProt O14925 1-209, looked up) Mitochondrial import inner …: MEGGGGSGNKTTGGLAGFFGAGGAGYSHADLAGVPLTGMNPLSPYLNVDPRYLVQDTDEFILPTGANKTRGRFELAFFTIGGCCMTGAAFGAMNGLRLGLKETQNMAWSKPRNVQILNMVTRQGALWANTLGSLALLYSAFGVIIEKTRGAEDDLNTVAAGTMTGMLYKCTGGLRGIARGGLTGLTLTSLYALYNNWEHMKGSLLQQSL	3	2					1	1
DHCR7 (protein, UniProt Q9UBM7 1-475, looked up) 7-dehydrocholesterol reductase: MAAKSQPNIPKAKSLDGVTNDRTASQGQWGRAWEVDWFSLASVIFLLLFAPFIVYYFIMACDQYSCALTGPVVDIVTGHARLSDIWAKTPPITRKAAQLYTLWVTFQVLLYTSLPDFCHKFLPGYVGGIQEGAVTPAGVVNKYQINGLQAWLLTHLLWFANAHLLSWFSPTIIFDNWIPLLWCANILGYAVSTFAMVKGYFFPTSARDCKFTGNFFYNYMMGIEFNPRIGKWFDFKLFFNGRPGIVAWTLINLSFAAKQRELHSHVTNAMVLVNVLQAIYVIDFFWNETWYLKTIDICHDHFGWYLGWGDCVWLPYLYTLQGLYLVYHPVQLSTPHAVGVLLLGLVGYYIFRVANHQKDLFRRTDGRCLIWGRKPKVIECSYTSADGQRHHSKLLVSGFWGVARHFNYVGDLMGSLAYCLACGGGHLLPYFYIIYMAILLTHRCLRDEHRCASKYGRDWERYTAAVPYRLLPGIF	3	2					2	2
SLC25A19 (protein, UniProt Q9HC21 1-320, looked up) Mitochondrial thiamine …: MVGYDPKPDGRNNTKFQVAVAGSVSGLVTRALISPFDVIKIRFQLQHERLSRSDPSAKYHGILQASRQILQEEGPTAFWKGHVPAQILSIGYGAVQFLSFEMLTELVHRGSVYDAREFSVHFVCGGLAACMATLTVHPVDVLRTRFAAQGEPKVYNTLRHAVGTMYRSEGPQVFYKGLAPTLIAIFPYAGLQFSCYSSLKHLYKWAIPAEGKKNENLQNLLCGSGAGVISKTLTYPLDLFKKRLQVGGFEHARAAFGQVRRYKGLMDCAKQVLQKEGALGFFKGLSPSLLKAALSTGFMFFSYEFFCNVFHCMNRTASQR	3	3					2	2
WDR6 (protein, UniProt Q9NNW5 1-1121, looked up) tRNA …: MDALEDYVWPRATSELILLPVTGLECVGDRLLAGEGPDVLVYSLDFGGHLRMIKRVQNLLGHYLIHGFRVRPEPNGDLDLEAMVAVFGSKGLRVVKISWGQGHFWELWRSGLWNMSDWIWDARWLEGNIALALGHNSVVLYDPVVGCILQEVPCTDRCTLSSACLIGDAWKELTIVAGAVSNQLLVWYPATALADNKPVAPDRRISGHVGIIFSMSYLESKGLLATASEDRSVRIWKVGDLRVPGGRVQNIGHCFGHSARVWQVKLLENYLISAGEDCVCLVWSHEGEILQAFRGHQGRGIRAIAAHERQAWVITGGDDSGIRLWHLVGRGYRGLGVSALCFKSRSRPGTLKAVTLAGSWRLLAVTDTGALYLYDVEVKCWEQLLEDKHFQSYCLLEAAPGPEGFGLCAMANGEGRVKVVPINTPTAAVDQTLFPGKVHSLSWALRGYEELLLLASGPGGVVACLEISAAPSGKAIFVKERCRYLLPPSKQRWHTCSAFLPPGDFLVCGDRRGSVLLFPSRPGLLKDPGVGGKARAGAGAPVVGSGSSGGGNAFTGLGPVSTLPSLHGKQGVTSVTCHGGYVYTTGRDGAYYQLFVRDGQLQPVLRQKSCRGMNWLAGLRIVPDGSMVILGFHANEFVVWNPRSHEKLHIVNCGGGHRSWAFSDTEAAMAFAYLKDGDVMLYRALGGCTRPHVILREGLHGREITCVKRVGTITLGPEYGVPSFMQPDDLEPGSEGPDLTDIVITCSEDTTVCVLALPTTTGSAHALTAVCNHISSVRAVAVWGIGTPGGPQDPQPGLTAHVVSAGGRAEMHCFSIMVTPDPSTPSRLACHVMHLSSHRLDEYWDRQRNRHRMVKVDPETRYMSLAVCELDQPGLGPLVAAACSDGAVRLFLLQDSGRILQLLAETFHHKRCVLKVHSFTHEAPNQRRRLLLCSAATDGSLAFWDLTTMLDHDSTVLEPPVDPGLPYRLGTPSLTLQAHSCGINSLHTLPTREGHHLVASGSEDGSLHVFVLAVEMLQLEEAVGEAGLVPQLRVLEEYSVPCAHAAHVTGLKILSPSIMVSASIDQRLTFWRLGHGEPTFMNSTVFHVPDVADMDCWPVSPEFGHRCALGGQGLEVYNWYD	2	2					2	2
